Taken from: PubChem BioAssay AID1259306 (Sanger Institute, 2017)
Shown is a random part of 794 reagents tested. 11 of them (1.4%) were called active. 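Calls reflect knock-down alone; synergy scores play no part, so knock-downs synergising with a drug can be called no change.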 Viability is capped at 1. Not given: the amount of reagent, the time to read-out.

Screen: 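Find kinases whose loss reduces colorectal cancer cell viability or aids targeted drugs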 (primary screen)
Cell system: human SNU-C5 colorectal cancer cells
Reagent: siRNA pool against human genes
Conditions: DMSO vehicle alone, or one anchor drug: BYL719 at 1 µM, cetuximab at 5 µg/ml or trametinib at 10 nM, given 24 h into the assay
Measurement: 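Replicate-averaged viability against non-targeting pool control, given as fraction and robust z-score; separate synergy scores for BYL719, cetuximab and trametinib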
Scale: robust z-score, knock-down alone and viability, knock-down alone: higher = more viable cells; synergy score with BYL719: higher = stronger synthetic lethality with BYL719; synergy score with cetuximab: higher = stronger synthetic lethality with cetuximab; synergy score with trametinib: higher = stronger synthetic lethality with trametinib
Rule for the call: 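Called essential when the robust z-score for knock-down alone is below -3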
Meaning of the calls: active = essential (knock-down alone); inactive = no change alone

Target gene	robust z-score, knock-down alone	viability, knock-down alone	synergy score with BYL719	synergy score with cetuximab	synergy score with trametinib	Outcome
PRKG2 (protein kinase cGMP-dependent 2)	0.989	1	0.0943	0	0.0131	inactive
NR2F2 (nuclear receptor subfamily 2 group F member 2)	-0.177	0.839	0.0875	0.0357	-0.0706	inactive
INSRR (insulin receptor related receptor)	0.989	1	0.258	0.0834	0.0197	inactive
NME4 (NME/NM23 nucleoside diphosphate kinase 4)	-0.382	0.811	-0.0828	0.102	-0.0332	inactive
GUCY2D (guanylate cyclase 2D, retinal)	-2.74	0.487	0.0508	-0.0801	0.106	inactive
CAMK2N1 (calcium/calmodulin dependent protein kinase II inhibitor 1)	-2.16	0.566	0.0455	-0.141	-0.151	inactive
TRIM27 (tripartite motif containing 27)	0.809	0.975	0.0553	0.115	-0.0608	inactive

Next part, starting with the last 2 of the part before.
Target gene	robust z-score, knock-down alone	viability, knock-down alone	synergy score with BYL719	synergy score with cetuximab	synergy score with trametinib	Outcome
CAMK2N1 (calcium/calmodulin dependent protein kinase II inhibitor 1)	-2.16	0.566	0.0455	-0.141	-0.151	inactive
TRIM27 (tripartite motif containing 27)	0.809	0.975	0.0553	0.115	-0.0608	inactive
PRKCI (protein kinase C iota)	0.358	0.913	0.25	-0.087	-0.073	inactive
ADGRL2 (adhesion G protein-coupled receptor L2)	0.625	0.95	0.0332	0.185	0.019	inactive
PIP4K2C (phosphatidylinositol-5-phosphate 4-kinase type 2 gamma)	0.326	0.909	0.177	0.187	0.157	inactive
TSSK1B (testis specific serine kinase 1B)	-0.842	0.748	-0.0856	-0.0741	-0.175	inactive
SOS2 (SOS Ras/Rho guanine nucleotide exchange factor 2)	0.692	0.959	0.075	0.0365	-0.141	inactive
PIK3R2 (phosphoinositide-3-kinase regulatory subunit 2)	0.0857	0.876	0.0213	-0.046	-0.161	inactive
TAOK2 (TAO kinase 2)	0.771	0.97	-0.0301	-0.0301	-0.145	inactive
HIPK2 (homeodomain interacting protein kinase 2)	0.219	0.894	-0.106	0.107	-0.0616	inactive
CDK1 (cyclin dependent kinase 1)	0.765	0.969	0.0877	-0.0309	0.121	inactive
NEK2 (NIMA related kinase 2)	-0.712	0.766	0.00783	-0.0564	-0.0465	inactive
ACVR1B (activin A receptor type 1B)	0.56	0.941	0.0344	-0.0591	0.0898	inactive
SMAD4 (SMAD family member 4)	-1.26	0.69	-0.0644	-0.18	-0.0806	inactive
PDK2 (pyruvate dehydrogenase kinase 2)	0.195	0.891	0.0619	0.0139	0.0598	inactive
